# Source: patent US12377171B2, “Methods for treating and diagnosing blinding eye diseases” (Translatum Medicus Inc., priority 2012, dated 2025)
# Tested on: RPE/outer retina
# Assay: DNIRA: delayed fluorescence imaging by cSLO after systemic dye injection
# Type: in vivo, Sprague Dawley rats
# Conditions: single IV ICG injection
smiles,measurement,setting,value
CC1(C)C(/C=C/C=C/C=C/C=C2\N(CCCCS(=O)(=O)[O-])c3ccc4ccccc4c3C2(C)C)=[N+](CCCCS(=O)(=O)[O-])c2ccc3ccccc3c21.[Na+] [ICG],"delayed NIR fluorescence (DNIRA, 795/810 nm)","high dose 5 mg/kg, 5 mg/kg",delayed and persistent fluorescence; also recorded: little appreciable difference between days 3 and 28 post-injection; also recorded: remains strong and distributed throughout the fundus out to 28 days; also recorded: persisted largely unchanged out to 21 days
same,"delayed NIR fluorescence (DNIRA, 795/810 nm)","low dose 0.35 mg/kg, 0.35 mg/kg",faded; also recorded: gradual fading from 48 hours to 21 days post-injection

# Entries after “also recorded” stand apart in the source; their conditions may differ.
